This is an account of results in article PMC9274095.

By UniProt entry, the sequences of proteins in these tests, tags left out. Where a name states a change or a piece, a line headed by the entry shows the natural chain unless it says otherwise.
UniProt P9WIV9: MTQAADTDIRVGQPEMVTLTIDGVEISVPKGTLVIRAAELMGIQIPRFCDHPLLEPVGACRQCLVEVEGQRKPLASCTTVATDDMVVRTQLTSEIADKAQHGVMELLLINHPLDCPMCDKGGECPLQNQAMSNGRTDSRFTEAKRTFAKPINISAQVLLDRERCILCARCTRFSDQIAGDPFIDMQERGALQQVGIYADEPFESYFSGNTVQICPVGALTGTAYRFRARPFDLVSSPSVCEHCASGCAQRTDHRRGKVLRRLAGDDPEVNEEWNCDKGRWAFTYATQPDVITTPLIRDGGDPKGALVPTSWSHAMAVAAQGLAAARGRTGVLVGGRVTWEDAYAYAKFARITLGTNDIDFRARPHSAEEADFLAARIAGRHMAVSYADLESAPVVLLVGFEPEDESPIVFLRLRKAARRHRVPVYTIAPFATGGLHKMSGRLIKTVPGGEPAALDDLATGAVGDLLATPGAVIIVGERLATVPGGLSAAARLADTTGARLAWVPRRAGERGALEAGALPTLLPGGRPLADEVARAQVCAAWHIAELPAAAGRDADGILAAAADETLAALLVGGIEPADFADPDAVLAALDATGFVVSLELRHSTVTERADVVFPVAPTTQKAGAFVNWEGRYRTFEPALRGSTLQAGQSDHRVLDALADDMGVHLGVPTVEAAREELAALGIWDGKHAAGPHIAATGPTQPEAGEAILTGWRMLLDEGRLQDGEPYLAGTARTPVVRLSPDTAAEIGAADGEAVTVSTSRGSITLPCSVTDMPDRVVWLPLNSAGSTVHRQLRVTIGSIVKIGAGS
UniProt P9WIW9: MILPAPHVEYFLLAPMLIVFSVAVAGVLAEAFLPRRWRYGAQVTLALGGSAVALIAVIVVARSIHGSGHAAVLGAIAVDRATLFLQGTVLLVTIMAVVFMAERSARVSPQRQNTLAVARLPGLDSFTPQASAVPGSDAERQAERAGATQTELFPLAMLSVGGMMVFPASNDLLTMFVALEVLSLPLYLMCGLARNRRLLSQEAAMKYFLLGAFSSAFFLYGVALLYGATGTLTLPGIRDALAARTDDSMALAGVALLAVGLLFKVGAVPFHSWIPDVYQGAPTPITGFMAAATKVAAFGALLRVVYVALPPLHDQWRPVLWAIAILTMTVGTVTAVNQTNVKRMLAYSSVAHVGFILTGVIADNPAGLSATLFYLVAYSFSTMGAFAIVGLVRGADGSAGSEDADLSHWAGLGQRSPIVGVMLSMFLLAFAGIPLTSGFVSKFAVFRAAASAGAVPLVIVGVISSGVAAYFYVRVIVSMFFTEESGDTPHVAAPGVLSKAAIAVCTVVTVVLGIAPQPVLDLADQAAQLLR

These are yes or no findings as the source states them, for the method shown. Binding seen in cells or lysates may run through a third protein. A yes stands for co-enrichment or nearness to the bait. Other partners may have been found. Where a sequence is shown, tags or fusion partners need not be part of it.

This assay concerns the target T1, Rv3143 fused with enhanced green fluorescent protein (eGFP) (M. tuberculosis) (UniProt P9WGL7).
T1 sequence: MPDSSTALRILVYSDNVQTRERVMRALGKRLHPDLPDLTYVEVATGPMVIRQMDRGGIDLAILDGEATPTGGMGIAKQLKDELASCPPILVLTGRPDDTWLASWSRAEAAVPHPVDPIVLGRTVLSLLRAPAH
As to the kind of experiment: affinity purification with mass spectrometry.

Turning to NuoG (from UniProt P9WIV9), the binding entry is given as “binds”.
Then NuoN (from UniProt P9WIW9), with “binds”.
